The test system of the data set is IgE. As to the kind of experiment: SPR. The settings on record: biotinylated aptamer on SA chip, PBS with 1 mM MgCl2 pH 7.4; concentration-dependent signal; electrophoresis shows IgE displaces 14-mer capture oligonucleotide (SEQ 6); purified native protein; label: biotin (SPR); single-stranded DNA.

The record followed here is US20090305254.

The exact form of at least one protein or probe is not confirmed.

Consider “TCACGTTTATCCGTCCCTCCTAGTGGCGTGA [CaAp-1 IgE-binding aptamer]”, for which the binding result is “binds”.
